# Experimental data reported in PubChem BioAssay AID248 (DTP/NCI, 2004).
# The list does not hold the whole screen: it is rich in T/C values a quarter to a half above the control, in often repeated tests (any T/C) and in doses without a T/C. Further doses and runs are listed elsewhere. T/C is the treated group as % of the vehicle group. Some entries give survivors of the animals treated and no T/C: the source files T/C as zero there, which appears to mark a toxic dose or a test without result, not a measured value. Some doses without a T/C left all or most animals alive at the check, yet need not have been tolerated: the source hardly ever lists a survival T/C far under the control, and the zero likely stands for such cases as well. Survivors were counted at the toxicity check, usually on the fifth day, unless a day is given; later deaths do not show. Schedules are NCI's codes, taken here to give the interval after Q, in days (D) or hours (H), and the number of doses after X. Some entries were tested several times; their values stand side by side, smallest first. Some schedules carry Z or #; the key to these is not given. Some molecules as drawn cover several salts, stereoisomers or complexes of the source; a dose is that of the sample tested. Where survival is the endpoint, the PubChem record calls one and a half times the control and up active, and a quarter to a half above the control has no call in these data; cut-offs in other NCI protocols can differ.
# Test system: L1210 leukemia ip in BDF1 mice, survival T/C
# Assay: NCI In Vivo Anticancer Drug Screen. Data for tumor model L1210 Leukemia (intraperitoneal) in B6D2F1 (BDF1) mice
# Conditions: higher T/C = longer survival
# [1] = T/C endpoint: mean survival time, dose: 400.0 mg/kg/injection, schedule: Q01DX009 (ip), vehicle: Klucel (hydroxypropylcellulose) (HPC)
# [2] = T/C endpoint: mean survival time, dose: 50.0 mg/kg/injection, schedule: Q04DX003 (ip), vehicle: saline with Tween-80
# [3] = T/C endpoint: mean survival time, dose: 100.0 mg/kg/injection, schedule: Q04DX003 (ip), vehicle: saline with Tween-80
# [4] = T/C endpoint: mean survival time, dose: 200.0 mg/kg/injection, schedule: Q04DX003 (ip), vehicle: saline with Tween-80
# [5] = T/C endpoint: mean survival time, dose: 400.0 mg/kg/injection, schedule: Q04DX003 (ip), vehicle: saline with Tween-80
smiles,measurement,setting,value
CC[n+]1c(-c2ccccc2)c2cc(N)ccc2c2ccc(N)cc21,T/C,"T/C endpoint: mean survival time, dose: 2.0 mg/kg/injection, schedule: Q01DX Z (ip), vehicle: saline",130 % of control
same,T/C,"T/C endpoint: mean survival time, dose: 2.5 mg/kg/injection, schedule: Q01DX Z (ip), vehicle: saline",127 % of control
same,T/C,"T/C endpoint: mean survival time, dose: 5.0 mg/kg/injection, schedule: Q01DX Z (ip), vehicle: saline",139 % of control
same,T/C,"T/C endpoint: mean survival time, dose: 5.0 mg/kg/injection, schedule: Q#A X Z (ip), vehicle: saline",141 % of control
same,T/C,"T/C endpoint: mean survival time, dose: 8.0 mg/kg/injection, schedule: Q02DX010 (ip), vehicle: saline",127 % of control
same,T/C,"T/C endpoint: mean survival time, dose: 10.0 mg/kg/injection, schedule: Q01DX Z (ip), vehicle: saline",148 % of control
same,T/C,"T/C endpoint: mean survival time, dose: 12.0 mg/kg/injection, schedule: Q02DX010 (ip), vehicle: saline",134 % of control
same,T/C,"T/C endpoint: mean survival time, dose: 18.0 mg/kg/injection, schedule: Q02DX010 (ip), vehicle: saline",133 % of control
same,survivor count,"T/C endpoint: mean survival time, dose: 20.0 mg/kg/injection, schedule: Q01DX006 (iv), vehicle: saline",0 of 6
same,survivor count,"T/C endpoint: mean survival time, dose: 20.0 mg/kg/injection, schedule: Q## X040 (ip), vehicle: saline",6 of 10
same,survivor count,"T/C endpoint: mean survival time, dose: 20.0 mg/kg/injection, schedule: Q#A X Z (ip), vehicle: saline",5 of 6
same,T/C,"T/C endpoint: mean survival time, dose: 27.0 mg/kg/injection, schedule: Q02DX010 (ip), vehicle: saline",131 % of control
same,T/C,"T/C endpoint: mean survival time, dose: 30.0 mg/kg/injection, schedule: Q03DX006 (ip), vehicle: saline",127 % of control
same,T/C,"T/C endpoint: mean survival time, dose: 35.0 mg/kg/injection, schedule: Q01DX001 (ip), vehicle: saline",127 and 130 % of control
same,T/C,"T/C endpoint: mean survival time, dose: 35.0 mg/kg/injection, schedule: Q07DX003 (ip), vehicle: saline",137 % of control
same,survivor count,"T/C endpoint: mean survival time, dose: 40.0 mg/kg/injection, schedule: Q01DX006 (iv), vehicle: saline",0 of 6
same,survivor count,"T/C endpoint: mean survival time, dose: 40.0 mg/kg/injection, schedule: Q01DX Z (im), vehicle: saline",2 of 6
same,survivor count,"T/C endpoint: mean survival time, dose: 40.0 mg/kg/injection, schedule: Q01DX Z (ip), vehicle: saline",5 of 6
same,survivor count,"T/C endpoint: mean survival time, dose: 40.0 mg/kg/injection, schedule: Q01DX Z (sc), vehicle: saline",5 of 6
same,survivor count,"T/C endpoint: mean survival time, dose: 50.0 mg/kg/injection, schedule: Q04DX003 (ip), vehicle: water",6 of 6
same,survivor count,"T/C endpoint: mean survival time, dose: 80.0 mg/kg/injection, schedule: Q01DX005 (ip), vehicle: saline",0 of 10
same,T/C,"T/C endpoint: mean survival time, dose: 80.0 mg/kg/injection, schedule: Q## X024 (ip), vehicle: saline",126 % of control
same,survivor count,"T/C endpoint: mean survival time, dose: 120.0 mg/kg/injection, schedule: Q03DX006 (ip), vehicle: saline",0 of 6
same,survivor count,"T/C endpoint: mean survival time, dose: 140.0 mg/kg/injection, schedule: Q07DX003 (ip), vehicle: saline",4 of 6
same,survivor count,"T/C endpoint: mean survival time, dose: 160.0 mg/kg/injection, schedule: Q01DX001 (sc), vehicle: saline",5 of 10
same,survivor count,"T/C endpoint: mean survival time, dose: 160.0 mg/kg/injection, schedule: Q01DX003 (ip), vehicle: saline",6 of 10
same,survivor count,"T/C endpoint: mean survival time, dose: 160.0 mg/kg/injection, schedule: Q01DX005 (ip), vehicle: saline",0 of 10
same,survivor count,"T/C endpoint: mean survival time, dose: 160.0 mg/kg/injection, schedule: Q## X008 (ip), vehicle: saline",6 of 10
same,survivor count,"T/C endpoint: mean survival time, dose: 280.0 mg/kg/injection, schedule: Q01DX001 (ip), vehicle: saline",0 of 6 and 4 of 6
same,survivor count,"T/C endpoint: mean survival time, dose: 280.0 mg/kg/injection, schedule: Q07DX003 (ip), vehicle: saline",2 of 6
same,survivor count,"T/C endpoint: mean survival time, dose: 320.0 mg/kg/injection, schedule: Q01DX001 (ip), vehicle: saline",0 of 10
same,survivor count,"T/C endpoint: mean survival time, dose: 320.0 mg/kg/injection, schedule: Q01DX001 (sc), vehicle: saline",0 of 10
same,survivor count,"T/C endpoint: mean survival time, dose: 320.0 mg/kg/injection, schedule: Q01DX003 (ip), vehicle: saline",0 of 10
same,survivor count,"T/C endpoint: mean survival time, dose: 320.0 mg/kg/injection, schedule: Q## X008 (ip), vehicle: saline",6 of 10
same,survivor count,"T/C endpoint: mean survival time, dose: 320.0 mg/kg/injection, schedule: Q## X024 (ip), vehicle: saline",3 of 10
same,survivor count,"T/C endpoint: mean survival time, dose: 860.0 mg/kg/injection, schedule: Q04DX003 (ip), vehicle: water",2 of 6
same,T/C,"T/C endpoint: median survival time, dose: 10.0 mg/kg/injection, schedule: Q04DX003 (ip), vehicle: water",144 % of control
same,survivor count,"T/C endpoint: median survival time, dose: 40.0 mg/kg/injection, schedule: Q01DX009 (ip), vehicle: water",6 of 8
CCNCC(=O)Nc1ccccc1C(=O)OCC,survivor count,"T/C endpoint: mean survival time, dose: 500.0 mg/kg/injection, schedule: Q01DX Z (ip), vehicle: saline",1 of 6
CNC(=O)N(C)N,survivor count,"T/C endpoint: mean survival time, dose: 100.0 mg/kg/injection, schedule: Q01DX009 (ip), vehicle: saline",1 of 6
same,survivor count,"T/C endpoint: mean survival time, dose: 200.0 mg/kg/injection, schedule: Q01DX009 (ip), vehicle: saline",0 of 6
same,survivor count,"T/C endpoint: mean survival time, dose: 400.0 mg/kg/injection, schedule: Q01DX009 (ip), vehicle: saline",0 of 6
NC(CSC(c1ccccc1)(c1ccccc1)c1ccccc1)C(=O)OC(c1ccccc1)c1ccccc1 (stereo unspecified),T/C,"T/C endpoint: mean survival time, dose: 264.0 mg/kg/injection, schedule: Q01DX001 (ip), vehicle: carboxymethylcellulose (CMC)",126 % of control
same,T/C,"T/C endpoint: mean survival time, dose: 600.0 mg/kg/injection, schedule: Q01DX001 (ip), vehicle: carboxymethylcellulose (CMC)",131 and 137 % of control
O=C(Nc1cccc(C(=O)O)c1)Nc1cccc(C(F)(F)F)c1,survivor count,[1],0 of 6
Cc1c(Cl)cccc1NC(=O)Oc1ccc(F)cc1Cl,survivor count,[1],0 of 6
C[CH2][Sb]([CH2]C)([CH2]C)([O]C(C)=O)[O]C(C)=O,survivor count,"T/C endpoint: mean survival time, dose: 100.0 mg/kg/injection, schedule: Q04DX002 (ip), vehicle: saline with Tween-80",0 of 3
same,survivor count,"T/C endpoint: mean survival time, dose: 200.0 mg/kg/injection, schedule: Q04DX002 (ip), vehicle: saline with Tween-80",0 of 3
same,survivor count,"T/C endpoint: mean survival time, dose: 400.0 mg/kg/injection, schedule: Q04DX002 (ip), vehicle: saline with Tween-80",0 of 3
CCCCCC[N+]1(C)CC2C3C=CC(C3)C2C1 (stereo unspecified),survivor count,"T/C endpoint: mean survival time, dose: 115.0 mg/kg/injection, schedule: Q04DX003 (ip), vehicle: saline",2 of 6
same,survivor count,"T/C endpoint: mean survival time, dose: 170.0 mg/kg/injection, schedule: Q04DX003 (ip), vehicle: saline",0 of 6
O=C(NC(=S)Nc1ccc(F)cc1)c1ccccc1F,survivor count,"T/C endpoint: mean survival time, dose: 200.0 mg/kg/injection, schedule: Q01DX009 (ip), vehicle: gum acacia",3 of 6
same,survivor count,"T/C endpoint: mean survival time, dose: 400.0 mg/kg/injection, schedule: Q01DX009 (ip), vehicle: gum acacia",0 of 6
Cc1cc(C)[c]([Hg][Cl])c(C)c1,survivor count,"T/C endpoint: mean survival time, dose: 25.0 mg/kg/injection, schedule: Q04DX003 (ip), vehicle: saline with Tween-80",6 of 6
same,survivor count,"T/C endpoint: mean survival time, dose: 50.0 mg/kg/injection, schedule: Q01DX009 (ip), vehicle: saline with Tween-80",0 of 6
same,survivor count,[2],0 of 6
same,survivor count,[3],0 of 6 and 5 of 6
same,survivor count,[4],0 of 6
same,survivor count,[5],0 of 6
CC(C)(CO)NCc1ccc(Cl)cc1,survivor count,"T/C endpoint: mean survival time, dose: 400.0 mg/kg/injection, schedule: Q01DX001 (ip), vehicle: saline",1 of 4
CCCCOCN1CCCCC1,survivor count,[5],0 of 6
Nc1ncnc(N)c1NC(=O)CCCc1ccccc1,survivor count,"T/C endpoint: mean survival time, dose: 400.0 mg/kg/injection, schedule: Q04DX003 (ip), vehicle: Klucel (hydroxypropylcellulose) (HPC)",6 of 6
C(=C\[P+](Cc1ccccc1)(c1ccccc1)c1ccccc1)/c1ccccc1,survivor count,[2],4 of 6
same,survivor count,[3],0 of 6
same,survivor count,[4],0 of 6
same,survivor count,[5],0 of 6
C/C=C/C(=O)Nc1ccccc1,survivor count,"T/C endpoint: mean survival time, dose: 400.0 mg/kg/injection, schedule: Q01DX001 (ip), vehicle: carboxymethylcellulose (CMC)",3 of 6
[Cl][Sn]([CH]1CCCCC1)([CH]1CCCCC1)[CH]1CCCCC1,survivor count,"T/C endpoint: mean survival time, dose: 50.0 mg/kg/injection, schedule: Q04DX002 (ip), vehicle: gum acacia",2 of 3
same,survivor count,"T/C endpoint: mean survival time, dose: 100.0 mg/kg/injection, schedule: Q04DX002 (ip), vehicle: gum acacia",0 of 3
same,survivor count,"T/C endpoint: mean survival time, dose: 200.0 mg/kg/injection, schedule: Q04DX002 (ip), vehicle: gum acacia",0 of 3
same,survivor count,"T/C endpoint: mean survival time, dose: 400.0 mg/kg/injection, schedule: Q04DX002 (ip), vehicle: gum acacia",0 of 3
